# Measurements reported in PubChem BioAssay AID504774 (Drosophila RNAi Screening Center, 2011)
# Purpose: 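Knock-downs that shift viability of MMS-exposed cells relative to untreated ones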 (primary screen)
# Cells: Drosophila Kc167 cells
# Reagents: long dsRNA against Drosophila genes, about 0.25 µg dsRNA per well
# Duration: about 6 days: 3 days knock-down, then 3 days with or without MMS
# Treatment: methyl methanesulphonate 0.004% (w/v) for 3 days after knock-down
# Detection: 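ATP-dependent luminescence as a measure of live cells in MMS-exposed wells, quantile normalised within each plate, with replicate values also given as a mean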
# Direction: mean viability with MMS and viability with MMS: higher = more surviving cells after MMS
# The screen tested about 23,000 reagents; below is a random part of those that have a named target and a result. 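Values are quantile-normalised luminescence on an arbitrary scale; higher means more cells surviving MMS.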 Reagents against one gene are numbered here. Names joined by + are all predicted targets of the reagent. Not all columns of the deposit are shown. Reagent sequences are not shown.
gene knocked down,dsRNA no.,mean viability with MMS,"viability with MMS, replicate 1"
lncRNA:CR32661 (long non-coding RNA:CR32661),1,3.55e6,3.96e6
HP6 (Heterochromatin protein 6),1,3.41e6,3.81e6
mRpS2 (mitochondrial ribosomal protein S2),1,3.67e6,4.10e6
Lmx1a (LIM homeobox transcription factor 1 alpha),1,3.52e6,3.89e6
Lmx1a (LIM homeobox transcription factor 1 alpha),2,2.86e6,3.46e6
CG33655,1,3.45e6,3.98e6
dmrt93B (doublesex-Mab related 93B),1,3.49e6,3.93e6
Mfap1 (Microfibril-associated protein 1),1,3.08e6,3.63e6
CG14676,1,3.51e6,3.96e6
Flo2 (Flotillin 2),1,3.55e6,4.08e6
Flo2 (Flotillin 2),2,3.57e6,3.97e6
Spn28F (Serpin 28F),1,3.65e6,4.03e6
Parp1 (Poly-(ADP-ribose) polymerase 1),1,3.51e6,4.05e6
Parp1 (Poly-(ADP-ribose) polymerase 1),2,3.68e6,4.24e6
Parp1 (Poly-(ADP-ribose) polymerase 1),3,3.70e6,4.20e6
Glo1 (Glyoxalase 1),1,3.52e6,3.87e6
SmD1 (Small ribonucleoprotein particle protein SmD1),1,3.21e6,3.60e6
N (Notch),1,3.57e6,4.08e6
CG13511,1,3.76e6,4.19e6
Jhbp5 (Juvenile hormone binding protein 5),1,3.65e6,4.12e6
HDAC3 (Histone deacetylase 3),1,3.54e6,4.15e6
PCNA2 (Proliferating cell nuclear antigen 2),1,3.55e6,3.99e6
CG42539 (retired record),1,3.67e6,4.15e6
CG42539 (retired record),2,3.59e6,4.05e6
CG18088,1,3.66e6,4.07e6
RpL24 (Ribosomal protein L24),1,3.18e6,3.66e6
Spn43Ab (Serpin 43Ab),1,3.55e6,4.03e6
BEAF-32 (Boundary element-associated factor of 32kD),1,3.59e6,4.07e6
VepD (Ventrally-expressed protein D),1,3.49e6,3.92e6
Gba1a (Glucocerebrosidase 1a),1,3.72e6,4.21e6
SmD2 (Small ribonucleoprotein particle protein SmD2),1,3.28e6,3.68e6
dor (deep orange),1,3.51e6,3.98e6
SP1173,1,3.61e6,4.21e6
CG12310,1,3.53e6,4.06e6
Sec10 (Secretory 10),1,3.54e6,4.04e6
CG12730,1,3.58e6,4.09e6
CG10737,1,3.62e6,4.12e6
"E(spl)m7-HLH (Enhancer of split m7, helix-loop-helix)",1,3.64e6,4.12e6
Lint-1 (l(3)mbt interacting protein 1),1,3.52e6,3.78e6
RhoBTB (Rho-related BTB domain containing),1,3.52e6,3.97e6
nAChRbeta2 (nicotinic Acetylcholine Receptor beta2),1,3.49e6,3.83e6
CG30291,1,3.52e6,4.00e6
AgmNAT (Agmatine N-acetyltransferase),1,3.59e6,4.04e6
CG30031 + deltaTry + CG30025 + 1 more,1,3.47e6,4.00e6
CG10991 (retired record),1,3.67e6,4.06e6
CG1213,1,3.51e6,3.97e6
Andorra,1,3.63e6,4.09e6
"GAPsec (GTPase activating protein, SECIS-dependent read-through)",1,3.59e6,4.04e6
PIG-Wb (Phosphatidylinositol glycan anchor biosynthesis class W b),1,3.54e6,4.05e6
Rpt4R (Regulatory particle triple-A ATPase 4-related),1,3.70e6,4.10e6
Nt5c (5' nucleotidase C),1,3.69e6,4.25e6
tant (tantalus),1,3.42e6,3.84e6
CG1523,1,3.54e6,4.04e6
robls54B (roadblock similar 54B),1,3.50e6,4.01e6
CG10764,1,3.75e6,4.19e6
CG31077,1,3.44e6,3.92e6
Octbeta2R (Octopamine beta2 receptor),1,3.73e6,4.20e6
Octbeta2R (Octopamine beta2 receptor),2,3.59e6,4.02e6
Idua (alpha-L-iduronidase),1,3.51e6,4.02e6
Septin4 (Septin 4),1,3.66e6,4.29e6
Nelf-A (Negative elongation factor A),1,3.70e6,4.25e6
mthl5 (methuselah-like 5),1,3.41e6,3.93e6
CG3687,1,3.59e6,4.04e6
cuff (cutoff),1,3.42e6,3.85e6
CG7739,1,3.56e6,4.01e6
dany (distal antenna-young),1,3.58e6,4.09e6
CG12609,1,3.39e6,3.84e6
sol (small optic lobes),1,3.68e6,4.19e6
CG33172,1,3.53e6,4.00e6
arr (arrow),1,3.66e6,4.12e6
CG31809,1,3.52e6,4.01e6
l(3)04053 (lethal (3) 04053),1,3.63e6,4.10e6
gcm2,1,3.65e6,3.95e6
CG31689,1,3.51e6,3.96e6
ord (orientation disruptor),1,3.42e6,3.71e6
Tmem131 (Transmembrane protein 131),1,3.75e6,4.29e6
Cln7,1,3.63e6,4.18e6
ClC-a (Chloride channel-a),1,3.40e6,3.91e6
ClC-a (Chloride channel-a),2,3.56e6,4.06e6
ClC-a (Chloride channel-a),3,3.68e6,4.21e6
Epp (Ecdysteroid phosphate phosphatase),1,3.46e6,3.86e6
CG30339,1,3.43e6,3.88e6
CG16957,1,3.61e6,4.19e6
Gycalpha99B (Guanylyl cyclase alpha-subunit at 99B),1,3.53e6,3.95e6
PEK (pancreatic eIF-2alpha kinase),1,3.91e6,4.45e6
CG42586 + CG31775,1,3.39e6,3.86e6
CG8372,1,3.71e6,4.32e6

Targets above whose target name starts with P or p:
gene knocked down,dsRNA no.,mean viability with MMS,"viability with MMS, replicate 1"
Parp1 (Poly-(ADP-ribose) polymerase 1),1,3.51e6,4.05e6
Parp1 (Poly-(ADP-ribose) polymerase 1),2,3.68e6,4.24e6
Parp1 (Poly-(ADP-ribose) polymerase 1),3,3.70e6,4.20e6
PCNA2 (Proliferating cell nuclear antigen 2),1,3.55e6,3.99e6
PIG-Wb (Phosphatidylinositol glycan anchor biosynthesis class W b),1,3.54e6,4.05e6
PEK (pancreatic eIF-2alpha kinase),1,3.91e6,4.45e6
